{"source": "PubChem BioAssay AID493014", "about": "(National Center for Advancing Translational Sciences (NCATS), 2011)", "note": "Hit rate of the full screen: of about 340,000 compounds, about 170 (0.05%) were called active. Inconclusive means that the source gave no clear call. Such entries were picked first, then a sample of the others. Calls follow the shape of the dose curve; as a rule, active = well fitted inhibition curve with a large enough effect in the signal ratio, with a control signal flat (not every such curve was filed as active); inconclusive = small, poorly fitted or top-dose-only effect, or effect the other way, or a change in a side signal; inactive = flat fitted curve, though single readings scatter; the % refers to the signal ratio. A potency beside an inconclusive call is a rough fit, not a confirmed value. Potency is read from the fitted curve at half-maximal effect.", "data": [{"assay": "qHTS Assay to Find Inhibitors of Chronic Active B-Cell Receptor Signaling;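 as to activity change, negative = inhibition: plate controls were basal doxycycline-induced cells for no effect and cells given 10 µM MG132 for full effect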", "details": "ABC-DLBCL IkBa-CBG/CBR reporter, luminescence ratio (green luciferase fused to IkBa over red control in TMD8 lymphoma cells), 4 h; activity change, negative = inhibition: at 46.1 µM (top of the series)", "how_it_was_run": "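Doxycycline induced both beetle luciferases in TMD8 lymphoma cells; IKK-driven degradation limits the IkappaBalpha-fused green signal, while red luminescence normalises for cell number and nonspecific effects. Compounds tested up to 46 uM, 4 hrs.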", "values": [{"compound": "Cc1nn(-c2ccccc2)c(Cl)c1/C=C/C(=O)c1ccccc1", "Potency": "inconclusive: 29.1 µM [falling, single point]"}, {"compound": "CCN(CC(=O)Nc1c(F)cccc1F)C(=O)C1CCN(C(=O)Nc2ccccc2)CC1", "activity change, negative = inhibition": "inactive"}, {"compound": "Cc1c(C)[n+](=O)c(-c2ccc(F)cc2)c(C)n1[O-]", "activity change, negative = inhibition": "inconclusive: 2.15%"}, {"compound": "C=CCn1c(CCCOc2ccc(Cl)cc2Cl)n[nH]c1=S", "Potency": "inconclusive: 29.1 µM [falling, single point]"}, {"compound": "COc1ccc(CCC(C)NCc2cccc(Br)c2)cc1", "note": "(stereo unspecified)", "activity change, negative = inhibition": "inconclusive: -1.07%"}, {"compound": "O=C(CN1CCN(S(=O)(=O)c2ccccc2)CC1)Nc1ccc([N+](=O)[O-])cc1", "activity change, negative = inhibition": "inactive"}, {"compound": "CCOc1ccccc1NC(=O)N1CCc2ccccc2C1", "activity change, negative = inhibition": "inconclusive: -1.44%"}, {"compound": "CCOc1ccc(NC(=O)c2ccccc2O)cc1", "Potency": "inconclusive: 25.9 µM [rising, single point]"}, {"compound": "O=C(COC(=O)C1CCC(=O)N1)Nc1ccccc1Br", "note": "(stereo unspecified)", "activity change, negative = inhibition": "inconclusive: 0.975%"}, {"compound": "Cc1ccc(-c2cc(C(=O)N/N=C/c3c(C)nn(-c4ccccc4)c3C)[nH]n2)cc1", "Potency": "inconclusive: 5.8 µM [falling, partial curve]"}, {"compound": "Cc1ccccc1NC(=O)CN1C(=O)N/C(=C\\c2ccccc2OCc2ccc(C(=O)O)cc2)C1=O", "activity change, negative = inhibition": "inconclusive: -10.2%"}, {"compound": "COc1cccc(N2CCN(C(=O)c3ccc(CS(=O)c4ccc(C)cc4)o3)CC2)c1", "note": "(stereo unspecified)", "Potency": "inconclusive: 7.94 µM [falling, partial curve, poor fit]"}, {"compound": "O=C(CCSc1ccc(Cl)c(Cl)c1)NC12CC3CC(CC(C3)C1)C2", "activity change, negative = inhibition": "inactive"}, {"compound": "COc1ccc(-c2c(C)nn3c(N)c(-c4ccccc4)cnc23)cc1OC", "Potency": "inconclusive: 11.2 µM [cytotoxic, partial curve]"}, {"compound": "COc1ccccc1NC(=O)c1ccc(S(=O)(=O)N(C)c2ccccc2OC)cc1", "activity change, negative = inhibition": "inactive"}, {"compound": "NS(=O)(=O)c1ccc(NC(=S)N2CCN(c3ccc(Cl)c(Cl)c3)CC2)cc1", "activity change, negative = inhibition": "inconclusive: 6.91%"}, {"compound": "Cc1ccc(C(=O)Nc2sc3c(c2C(=O)O)CCC(C)C3)o1", "note": "(stereo unspecified)", "Potency": "inconclusive: 4.61 µM [falling, partial curve]"}, {"compound": "CC(=O)c1csc(-c2cccc(-c3nc4ccc(Cl)cn4c3NC3CCCCC3)c2)c1", "activity change, negative = inhibition": "inconclusive: 0.462%"}, {"compound": "Cc1ccc(C(=O)N2CCN(S(C)(=O)=O)C2)cc1", "activity change, negative = inhibition": "inconclusive: 2.3%"}, {"compound": "O=C1CCCC2=C1C1c3ccccc3C(=O)N1c1ccc(C(=O)c3ccccc3)cc1N2", "note": "(stereo unspecified)", "activity change, negative = inhibition": "inconclusive: 8.15%"}, {"compound": "OCCN(CCO)c1ccc2ccccc2c1", "Potency": "inconclusive: 14.1 µM [falling, single point]"}, {"compound": "Cc1c(O)c2c(=O)n(-c3ccccc3)c(-c3ccccc3)cc2oc1=O", "activity change, negative = inhibition": "inactive"}, {"compound": "Cc1ccccc1-c1nc(-c2cccnc2)no1", "activity change, negative = inhibition": "inactive"}, {"compound": "Cc1ccc(SC(=O)c2c([N+](=O)[O-])c(C)nn2C)cc1", "activity change, negative = inhibition": "inconclusive: 3.48%"}, {"compound": "Cc1ccccc1CSCC(=O)N/N=C/c1cccs1", "Potency": "inconclusive: 25.1 µM [falling, single point]"}, {"compound": "Oc1cccc(Nc2ncnc3ccccc23)c1", "Potency": "inconclusive: 4.61 µM [falling, full curve, poor fit]"}, {"compound": "COc1cc(/C=N/NC(=O)c2ccncc2)cc2c1OCO2", "activity change, negative = inhibition": "inactive"}, {"compound": "CCOC(=O)N1CCc2c(sc(NCc3cc(OC)c(OC)cc3OC)c2C(=O)Nc2ccc(OCC)cc2)C1", "activity change, negative = inhibition": "inactive"}, {"compound": "Cn1c(=O)[nH]c(=O)c2c1nc(N1CCCCC1)n2C/C=N/NC(=O)c1cc(Br)ccc1O", "activity change, negative = inhibition": "inconclusive: 223%"}, {"compound": "O=C(O)CCC(=O)Nc1ccc(S(=O)(=O)N2CCCC2)cc1", "activity change, negative = inhibition": "inconclusive: 2.61%"}, {"compound": "CSc1ccccc1NC(=O)COc1nsnc1N1CCOCC1", "Potency": "inconclusive: 12.6 µM [falling, partial curve]"}, {"compound": "CCOc1ccc(/C=N/Nc2ccc(Cl)nn2)c(O)c1", "Potency": "inconclusive: 0.891 µM [falling, partial curve, poor fit]"}, {"compound": "CC(C)CC(=O)N1CCN(c2ccc([N+](=O)[O-])cc2Cl)CC1", "activity change, negative = inhibition": "inactive"}, {"compound": "Cc1ccc(O)c(-c2cc(C(F)(F)C(F)F)[nH]n2)c1", "activity change, negative = inhibition": "inconclusive: 5.3%"}, {"compound": "Cn1c(-c2ccc(F)cc2)cnc1NCc1cc2c(cc1[N+](=O)[O-])OCO2", "Potency": "inconclusive: 16.4 µM [falling, partial curve]"}, {"compound": "O=C(Cn1cnc2ccccc21)N/N=C/C(Br)=C/c1ccccc1", "activity change, negative = inhibition": "inactive"}, {"compound": "Cc1cc(C)c2nc(N3CCCC(C(=O)NC4CCCC4)C3)sc2c1", "note": "(stereo unspecified)", "activity change, negative = inhibition": "inactive"}, {"compound": "S=C(Nc1ccccn1)NC1CCCCC1", "activity change, negative = inhibition": "inconclusive: -3.12%"}, {"compound": "O=C(CCN1C(=O)c2ccccc2C1=O)NCc1cccc(Cl)c1", "activity change, negative = inhibition": "inconclusive: 6.86%"}, {"compound": "COc1ccc(N2CC(NC(=O)c3ccc(Br)o3)CC2=O)cc1", "note": "(stereo unspecified)", "activity change, negative = inhibition": "inactive"}, {"compound": "COc1ccc(-c2oc3ccccc3c(=O)c2OCC(=O)O)cc1", "activity change, negative = inhibition": "inconclusive: 3.14%"}, {"compound": "O=C1/C(=C/c2cccnc2)CCc2c1[nH]c1ccccc21", "activity change, negative = inhibition": "inconclusive: -24.8%"}, {"compound": "O=c1[nH]cnc2sc(-c3ccccc3)cc12", "Potency": "inconclusive: 14.6 µM [falling, partial curve]"}, {"compound": "COc1cccc(C(=O)Nc2ccc(Cl)c(C(F)(F)F)c2)c1", "activity change, negative = inhibition": "inconclusive: -5.54%"}, {"compound": "COc1cccc(C2CC(=O)N3CN(c4cccc(Cl)c4C)CSC3=C2C#N)c1OC", "note": "(stereo unspecified)", "Potency": "inconclusive: 11.6 µM [rising, partial curve, poor fit]"}, {"compound": "CCCCS/C(N)=N/N=C/c1ccccc1O", "activity change, negative = inhibition": "inconclusive: 0.0192%"}, {"compound": "Cc1cc(C)n(-c2ccc(C(=O)Nc3ccc(C)c(S(=O)(=O)N(C)C)c3)cc2)n1", "activity change, negative = inhibition": "inconclusive: 1.23%"}, {"compound": "Cc1nc(SCC(=O)Nc2cc(C)on2)c2c3c(sc2n1)CCCC3", "activity change, negative = inhibition": "inconclusive: 9.52%"}, {"compound": "COC(=O)c1sc(NC(=O)/C=C/c2ccccc2Cl)nc1C", "Potency": "inconclusive: 35.5 µM [rising, single point]"}, {"compound": "CCOC(=O)c1sc(N2C(=O)C(O)=C(C(=O)c3ccco3)C2c2cccc([N+](=O)[O-])c2)nc1C", "note": "(stereo unspecified)", "Potency": "inconclusive: 35.5 µM [falling, single point]"}, {"compound": "O=C(Cc1ccc([N+](=O)[O-])cc1)N1CCCc2ccccc21", "activity change, negative = inhibition": "inconclusive: 11.9%"}]}]}
